Hit rate of the full screen: of about 53,000 sequences, about 3,700 (7%) were called active.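 How the source made its calls: active means gene knockdowns whose robust z-score for IL-1 alpha signal is at least 2 or at most -2, so actives lie on both sides; inactive means the rest.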 Some of the results follow.

This experiment can be described thus: Components of the Cytosolic LPS Sensing Pathway: Gene Identification via Genome-wide siRNA Screen.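 Further: robust z of the log signal after scaling to non-targeting control siRNA wells of the plate.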 The conditions noted are these: RAW264.7 macrophages, IL-1a HTRF, actives lie on both sides, screened at 100 nM (by protocol), cells primed 5 h with Pam3CSK4 first. In outline:
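IL-1a HTRF of supernatants after 24 hour LipidA transfection of Pam3CSK4-primed (5 hours) RAW264.7 cells, 48h post-siRNA transfection (100 nM). Scores: percent of plate negative-control median, then log-based robust z-score.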
In general terms: Time-resolved FRET reads energy transfer from a long-lived donor to a nearby acceptor.
In the case of GGAAGUACAGAAUUUUGAATT against Sft2d2, the z-score was inactive: 1.46. Under CCAAUAGGUCUGCUUGCCUTT against Oxgr1 stands inactive: -0.287.

As for GGUGUCCAAAAAUAAGCAATT against Top2a, the z-score is inactive: 0.184. In the case of GGAAAUUGUGAAAACUGGGTT against Copb2 it was inactive: -0.86; in that of GAAGACUUCGUCCUAACAGTT against Ctsg, inactive: -0.195; in that of GGUGGUUAUUGGUGGCAGATT against Smc2, inactive: -0.344. Consider GGAGUUAUACGCAUGCCAGTT against Tmem59, for which the z-score is inactive: 0.639. Under GGUUUUUAACCUCUCCUGGTT against Mela stands inactive: -1.05; under GGAGCUGUAUGACCAUGCCTT against Rab25, active: -2.03.

As to GCUUGAACUUCCCGAGUGUTT against Krtcap3, the z-score is inactive: 0.0501. On to GGUGCAGAACUAAUUCCACTT against Clca4a, for which the z-score is inactive: 1.43. With GCUUACCUUGACCAACCUCTT against Chrng, the z-score is inactive: -0.937.

With GGAGAAAAACAUCUAAGUGTT against Smim8, the z-score was inactive: 0.34.

Consider GCGGUCUUUACUUAGAGGGTT against Bri3, for which the z-score was inactive: 0.223.

Regarding GCAGCAUCCUGUUUCAUUGTT against Trmt9b, the z-score is inactive: 1.74. In the case of GGGAAAACCACAAGACACUTT against Dppa4 it was inactive: -0.374. Consider GGAUUUAUCAUAUUACUGCTT against Pop1, for which the z-score was inactive: 0.653. On to GGGAACUGUUCAAAAAGACTT against Cnot11, for which the z-score is inactive: -0.154. Consider CGAUGACUGGACACAUUUGTT against Sqstm1, for which the z-score was inactive: -1.41. On to GGAGCAGGACGAGAAUCAATT against Cdkn1c, for which the z-score was active: 3.62. Under GGGCAAAAUAGAAGUGAAUTT against Ripor2 stands inactive: -1.5; under GGUCCACUGAUUCUGAUAATT against Cyp4a31, inactive: 1.79.

For the sequence GGACACACACACAAAUUUGTT against Vps29, the z-score was inactive: -1.97.

For the sequence GCUUUUUGAUCACGUCGCUTT against Hk1, the z-score was inactive: -0.373. Regarding GGCAUUGACAUCAUGUACUTT against Agxt, the z-score is inactive: 1.1.

Consider GGACAGAUGAGAGAGAAUUTT against Ttl, for which the z-score was inactive: -0.601.

As to GGUUUGGUGAAAACAAUCGTT against Akr1b3, the z-score is inactive: 0.443. For GGAUUGGUGCAACUUCAGATT against Sp4, the z-score is inactive: 0.565.

On to GGUUGUCAUAAUCUUGUUATT against Irgq, for which the z-score was inactive: -0.59. For GGUUAUAUCCAUGUGACACTT against Nkg7, the z-score was inactive: -1.15. Under GGUUUUUACAGAAGUACAUTT against Atm stands inactive: 0.19. As for GGGUUAUAGCUAUAGGACUTT against Olfr64, the z-score is inactive: 0.887. Under GGAAAAACUUCACCUUUGGTT against B3galt1 stands inactive: -1.25.

With CCCUUCUUCGGGUUUUAACTT against Kcna3, the z-score was active: 3.08. In the case of GGAUUGAGACCUCACAGUGTT against Gorasp2 it was inactive: -0.596; in that of GGCCAUAAAGGAAAGAGCUTT against Actr1a, inactive: 0.3.

Consider GGGCCUGUUAAGCUCAAAGTT against Kmt2b, for which the z-score was inactive: -0.717.

As for GCACGAUGUCUCAGCUCUATT against Nipal3, the z-score was active: -2.89. In the case of GGAAGCAGAUGCAGCUGUUTT against Nat8f5 it was inactive: 0.348; in that of GGAAAAGCAGAUUGAAAUGTT against Gbp2b, inactive: -1.24. In the case of CGAAAACAUUAACCUUGGUTT against Mylip it was inactive: -0.863; in that of GUCUUUACCGACUGGUUAGTT against Ldoc1, inactive: -1.6. Under CGUACUAUGGUGCUUUCAUTT against Map4k4 stands inactive: 1.19.

Take GGCCUACUCAAUCAAAGACTT against Tigd5: the z-score was inactive: 0.48.

Regarding CUGAUUCUGGGAAACAGUATT against Tas2r123, the z-score is inactive: -0.968. Under GCAACAGUUAACCAUUAGCTT against Ms4a6b stands inactive: 0.547; under CCAGAAUGUAAAACAACCGTT against Zfp365, inactive: 0.588; under GGCUUUCUAUCAAUUUGUGTT against Rlim, inactive: 0.808. “GGACAGCGAUAUCUCAAUATT against 1700001P01Rik”: the z-score is inactive: 0.221. Under CCUGCUCAAACUUUUGUGGTT against Ephx4 stands inactive: 0.928; under GCCUGACUUUAAUGAAGAATT against Slf2, inactive: -1.77; under GGUGAAUAGAACAUCAUCUTT against Lrrc29, inactive: -1.76.

With GGAUUUAUUUGCCAACACUTT against Actbl2, the z-score was active: -2.28.

For GGUCUUCAGCCCAAGAAAUTT against Dsg2, the z-score was inactive: 0.127. In the case of GGUGUCUGAUUCUAACAUATT against Catsper4 it was inactive: 0.589. In the case of GCUGUGUCACUACUUCGAUTT against Rpp40 it was inactive: 1.32. Under GCUGUCGACUUUAAAAGGUTT against Pcdhga7 stands inactive: -0.356; under CCUGUCAAAGUUGUAAAAGTT against Zar1, inactive: -1.49; under GUUGGUUGUAGGUACUUAUTT against Olfr487, inactive: -1.4. As for GGAUACGAUUGAACGGCUGTT against Rac3, the z-score is inactive: -0.566. Under GCAUCACCAAGACUCGGAATT against Sun2 stands inactive: 0.9. In the case of CCAUACUUAUGCCAGCCUGTT against Tfeb it was inactive: 0.162; in that of GGAAGAGAUAAGAAGAGAGTT against Faim, inactive: 1.57. In the case of GGUCUAAAAUUGUGCUAAATT against Klhl32 it was inactive: 0.877. Turning to GGCGAGAAAUUCUUCACAUTT against Plxna3, the z-score is inactive: -1.51. Under GCAUCACUGCCACAGUGCATT against Olfr159 stands inactive: -0.133; under GGCCGAUAUGGUGUUUAGATT against Tomm40l, inactive: 1.61; under GGCUAUUACCAUGGCCACUTT against Smim5, active: -2.85. As to GCAGUGUUGAGACCAACAUTT against C1qtnf3, the z-score is inactive: -0.875. As for GCAGAUUGAAUCAUCCAUGTT against Zc3hc1, the z-score is inactive: -0.625. Under CGGUUCUGGGAAUUCUUUGTT against Olfr624 stands active: -2.11; under UUUGAACAGUCACUCCUCGTT against Ipcef1, active: 2.18. Under GGGAUGCAGUAAAUGUGUATT against Acaa1a stands inactive: 0.00646. Turning to “GCUGUAGUUCCCUGGCCUATT against 2310057N15Rik”, the z-score is inactive: -0.423. In the case of CCUAGAGGAAGAUUUCGAUTT against Cacna1h it was inactive: -0.613; in that of CCUCUGGUUGUAAAAACAUTT against Rpp38, inactive: -0.682; in that of GUUCGAAAAGGGAAUGAUATT against Arap2, inactive: -0.0156. In the case of GGAGGGAAUCAGAGAACAGTT against Zfp738 it was inactive: 0.789; in that of GGAUUUUUGCACUCAGUAATT against Olfr1256, inactive: 1.26; in that of CCUUACCAUCGUCUUCAAGTT against Cmklr1, inactive: -0.29.

GGCAAACUAUGCCUUCAAGTT against Cib2: the z-score was inactive: -0.157. For the sequence GGUACUUUAGACAAGAGAGTT against Cybc1, the z-score is inactive: 1.01. Under CGUAGUAGCCACGUCUACUTT against Eci3 stands inactive: 0.404. Under GGAUGACAGUGUGAUUGUGTT against Ikzf4 stands inactive: -0.47; under GGGUCCACAUCUUGAGCUUTT against Fxyd7, inactive: 0.453. Under CCCUAAUAAAUUCCAAAUCTT against H2-Ke6 stands inactive: 1.81.

Turning to GGAAGACAGCACCAUGAACTT against Il17f, the z-score was inactive: -0.205. In the case of GGAGAGACCUCUGAGAUUGTT against Ephb6 it was inactive: -0.486; in that of GACUGCUACAAGGUGAAGATT against Mrpl36, inactive: -1.22; in that of GCCCUAGAACUUUUGAAUUTT against Dhx15, inactive: 0.162. In the case of CCUUAAGAUCAUUUACCCATT against Mixl1 it was inactive: -0.13; in that of GUACCUGAAGCCAGUGUUGTT against Prmt3, inactive: 1.04; in that of GGUGUGUAUGAUGCUGGCATT against Olfr1508, inactive: -0.0763. For GUGAAGACAUCAGCAGACUTT against Aspdh, the z-score was inactive: 0.0149. In the case of CCACUCUAAUGAUGUUUUUTT against Slc46a3 it was inactive: 0.411; in that of GGCAAAUAAAUGAUCCAAATT against Echs1, inactive: 1.97; in that of GGUAGCAGUAGGAUACUUCTT against Cenpi, inactive: -0.554. In the case of GGGAUCCGAAUUCUGACCATT against Tlcd2 it was inactive: 0.108; in that of GGUCAAAUGCACCCGAUUATT against Hoxc10, active: 2.44. Under GGAGAUGAUUUCCUACUUCTT against Rasgrp2 stands active: 3.47.

For the sequence GGGACCACUGUGUAUUGACTT against Creld2, the z-score is inactive: -0.0613. In the case of GGUCGAACAGAAGAUUGCUTT against Got1 it was inactive: -1.36; in that of GCCAAUGGACCACAAACUGTT against Cers6, inactive: 0.565; in that of GGAUUGGGUUACAUACAGATT against Scgb2b2, inactive: -0.0731.

With GCUGAACUAUAACUUGAAATT against Stat1, the z-score was inactive: -1.08.

With GCAGGUGAAAGUGCAGAUCTT against Timm13, the z-score was active: 3.35. Regarding CCACAGACAGUUAUUACUGTT against Adgre1, the z-score was inactive: -1. Under GCCACUUCAUAUUUUUGACTT against Ppwd1 stands inactive: 0.000386.
